PubChem BioAssay AID1259254 – NCATS, 2017

- Assay: 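Gene knock-downs that lead to re-replication, shown by excess G2 DNA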 (primary screen)
- System: human HCT116 colorectal cancer cells
- Knock-down reagent: single siRNA against human genes
- Timing: 3 days
- Read-out: 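Imaged Hoechst DNA stain sorts each cell into a cycle phase by DNA amount; per plate, G2 fraction set to 0% for non-targeting and 100% for GMNN siRNA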
- Reading the numbers: G2 robust z-score: higher = more G2 cells, more excess DNA replication
- Hit rule: 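Active siRNAs have a G2 robust z of 5 or more median absolute deviations over the median, which in these data means about 38% or higher of GMNN control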
This is a random part of about 59,000 reagents tested. About 1,550 of them (2.6%) count as active. 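G2 share is only a proxy for re-replication; each gene was hit by three separate siRNAs, and active genes were retested.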 The numbers tell different reagents against one gene apart. Not all columns of the deposit are shown. Not stated in the record: the amount of reagent.

With CCDC32 (coiled-coil domain containing 32) #1, what was measured?
G2 robust z-score: -0.0424; activity call: inactive

How did the screen score CCDC32 (coiled-coil domain containing 32) #2?
G2 robust z-score: 1.99; activity call: inactive

With CCDC32 (coiled-coil domain containing 32) #3, what was measured?
G2 robust z-score: 1.06; activity call: inactive

Which result is listed for SENP1 (SUMO specific peptidase 1) #1?
G2 robust z-score: -0.977; activity call: inactive

What did the screen give for SENP1 (SUMO specific peptidase 1) #2?
G2 robust z-score: -0.507; activity call: inactive

For SENP1 (SUMO specific peptidase 1) #3, what does the deposit list?
G2 robust z-score: -1.1; activity call: inactive

With PCBP1 (poly(rC) binding protein 1) #1, how do the results read?
G2 robust z-score: -0.255; activity call: inactive

For PCBP1 (poly(rC) binding protein 1) #2, what was measured?
G2 robust z-score: 0.468; activity call: inactive

What did the screen give for PCBP1 (poly(rC) binding protein 1) #3?
G2 robust z-score: -0.462; activity call: inactive

What is on record for MTMR4 (myotubularin related protein 4) #1?
G2 robust z-score: 3.99; activity call: inactive

What is on record for MTMR4 (myotubularin related protein 4) #2?
G2 robust z-score: -0.969; activity call: inactive

For MTMR4 (myotubularin related protein 4) #3, what was measured?
G2 robust z-score: 4.19; activity call: inactive

What did the screen give for TRAF2 (TNF receptor associated factor 2) #1?
G2 robust z-score: 0.0881; activity call: inactive

What did the screen give for TRAF2 (TNF receptor associated factor 2) #2?
G2 robust z-score: -0.574; activity call: inactive

How did the screen score TRAF2 (TNF receptor associated factor 2) #3?
G2 robust z-score: -0.729; activity call: inactive

Which result is listed for PRMT8 (protein arginine methyltransferase 8) #1?
G2 robust z-score: -0.0352; activity call: inactive

With PRMT8 (protein arginine methyltransferase 8) #2, how do the results read?
G2 robust z-score: -0.978; activity call: inactive

How did the screen score PRMT8 (protein arginine methyltransferase 8) #3?
G2 robust z-score: 0.0363; activity call: inactive

Part of the list above, reformatted.
{"target": "TRAF2 (TNF receptor associated factor 2)", "reagent no.": 3, "G2 robust z-score": -0.729, "activity call": "inactive"}
{"target": "PRMT8 (protein arginine methyltransferase 8)", "reagent no.": 1, "G2 robust z-score": -0.0352, "activity call": "inactive"}
